Test results published in publication PMC7836002.
No constants are given. Whether binding was seen depends on the method and setting. Binding seen in cells or lysates may run through a third protein. Some entries that bind do so weakly or less than the wild type.

Amino acid sequences for entries named in this document (tags omitted).
UniProt P03129: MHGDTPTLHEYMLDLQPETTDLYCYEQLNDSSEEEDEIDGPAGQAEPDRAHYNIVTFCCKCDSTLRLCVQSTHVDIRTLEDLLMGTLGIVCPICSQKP

Molecular target: T1, PTPN14 (human (endogenous in C33A)) (UniProt Q15678)
T1 sequence: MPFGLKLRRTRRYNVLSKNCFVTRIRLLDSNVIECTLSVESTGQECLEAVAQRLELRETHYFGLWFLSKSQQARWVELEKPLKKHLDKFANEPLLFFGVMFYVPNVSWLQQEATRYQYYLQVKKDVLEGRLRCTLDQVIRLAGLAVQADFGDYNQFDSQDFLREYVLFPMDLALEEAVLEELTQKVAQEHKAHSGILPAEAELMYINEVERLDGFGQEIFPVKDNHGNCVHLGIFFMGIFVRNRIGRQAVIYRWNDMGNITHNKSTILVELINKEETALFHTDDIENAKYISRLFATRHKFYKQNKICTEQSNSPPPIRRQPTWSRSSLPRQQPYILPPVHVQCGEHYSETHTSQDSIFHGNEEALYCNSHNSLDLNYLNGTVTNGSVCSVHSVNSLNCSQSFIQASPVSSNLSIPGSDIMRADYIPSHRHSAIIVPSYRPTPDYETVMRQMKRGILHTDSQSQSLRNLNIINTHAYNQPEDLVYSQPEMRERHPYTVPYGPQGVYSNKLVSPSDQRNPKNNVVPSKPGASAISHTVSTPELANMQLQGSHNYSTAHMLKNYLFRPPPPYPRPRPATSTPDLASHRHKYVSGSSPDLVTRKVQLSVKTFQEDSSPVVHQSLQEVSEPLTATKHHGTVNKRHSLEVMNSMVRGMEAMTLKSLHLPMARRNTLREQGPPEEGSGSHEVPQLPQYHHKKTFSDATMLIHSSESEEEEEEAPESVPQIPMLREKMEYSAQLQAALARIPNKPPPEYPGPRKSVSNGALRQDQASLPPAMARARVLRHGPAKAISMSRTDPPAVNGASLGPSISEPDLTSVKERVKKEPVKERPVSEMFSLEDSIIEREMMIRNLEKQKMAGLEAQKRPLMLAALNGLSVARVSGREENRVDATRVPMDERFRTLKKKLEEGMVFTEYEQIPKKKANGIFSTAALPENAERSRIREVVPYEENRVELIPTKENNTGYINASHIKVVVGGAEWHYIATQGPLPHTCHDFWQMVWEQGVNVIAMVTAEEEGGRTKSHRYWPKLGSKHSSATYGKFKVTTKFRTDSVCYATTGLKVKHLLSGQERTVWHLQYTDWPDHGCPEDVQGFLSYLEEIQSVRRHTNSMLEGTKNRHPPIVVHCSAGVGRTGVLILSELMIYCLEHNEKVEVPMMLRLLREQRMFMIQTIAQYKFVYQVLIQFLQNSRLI
Assay: FRET or BRET

Substance: HPV16E7 wild-type (from UniProt P03129 1-98)
- binding: binds
